# Laboratory results as given in paper doi:10.1101/2019.12.20.882282.
# Sequences of proteins named here, by UniProt entry; tags and fusion partners are left off.
# UniProt Q91YE5: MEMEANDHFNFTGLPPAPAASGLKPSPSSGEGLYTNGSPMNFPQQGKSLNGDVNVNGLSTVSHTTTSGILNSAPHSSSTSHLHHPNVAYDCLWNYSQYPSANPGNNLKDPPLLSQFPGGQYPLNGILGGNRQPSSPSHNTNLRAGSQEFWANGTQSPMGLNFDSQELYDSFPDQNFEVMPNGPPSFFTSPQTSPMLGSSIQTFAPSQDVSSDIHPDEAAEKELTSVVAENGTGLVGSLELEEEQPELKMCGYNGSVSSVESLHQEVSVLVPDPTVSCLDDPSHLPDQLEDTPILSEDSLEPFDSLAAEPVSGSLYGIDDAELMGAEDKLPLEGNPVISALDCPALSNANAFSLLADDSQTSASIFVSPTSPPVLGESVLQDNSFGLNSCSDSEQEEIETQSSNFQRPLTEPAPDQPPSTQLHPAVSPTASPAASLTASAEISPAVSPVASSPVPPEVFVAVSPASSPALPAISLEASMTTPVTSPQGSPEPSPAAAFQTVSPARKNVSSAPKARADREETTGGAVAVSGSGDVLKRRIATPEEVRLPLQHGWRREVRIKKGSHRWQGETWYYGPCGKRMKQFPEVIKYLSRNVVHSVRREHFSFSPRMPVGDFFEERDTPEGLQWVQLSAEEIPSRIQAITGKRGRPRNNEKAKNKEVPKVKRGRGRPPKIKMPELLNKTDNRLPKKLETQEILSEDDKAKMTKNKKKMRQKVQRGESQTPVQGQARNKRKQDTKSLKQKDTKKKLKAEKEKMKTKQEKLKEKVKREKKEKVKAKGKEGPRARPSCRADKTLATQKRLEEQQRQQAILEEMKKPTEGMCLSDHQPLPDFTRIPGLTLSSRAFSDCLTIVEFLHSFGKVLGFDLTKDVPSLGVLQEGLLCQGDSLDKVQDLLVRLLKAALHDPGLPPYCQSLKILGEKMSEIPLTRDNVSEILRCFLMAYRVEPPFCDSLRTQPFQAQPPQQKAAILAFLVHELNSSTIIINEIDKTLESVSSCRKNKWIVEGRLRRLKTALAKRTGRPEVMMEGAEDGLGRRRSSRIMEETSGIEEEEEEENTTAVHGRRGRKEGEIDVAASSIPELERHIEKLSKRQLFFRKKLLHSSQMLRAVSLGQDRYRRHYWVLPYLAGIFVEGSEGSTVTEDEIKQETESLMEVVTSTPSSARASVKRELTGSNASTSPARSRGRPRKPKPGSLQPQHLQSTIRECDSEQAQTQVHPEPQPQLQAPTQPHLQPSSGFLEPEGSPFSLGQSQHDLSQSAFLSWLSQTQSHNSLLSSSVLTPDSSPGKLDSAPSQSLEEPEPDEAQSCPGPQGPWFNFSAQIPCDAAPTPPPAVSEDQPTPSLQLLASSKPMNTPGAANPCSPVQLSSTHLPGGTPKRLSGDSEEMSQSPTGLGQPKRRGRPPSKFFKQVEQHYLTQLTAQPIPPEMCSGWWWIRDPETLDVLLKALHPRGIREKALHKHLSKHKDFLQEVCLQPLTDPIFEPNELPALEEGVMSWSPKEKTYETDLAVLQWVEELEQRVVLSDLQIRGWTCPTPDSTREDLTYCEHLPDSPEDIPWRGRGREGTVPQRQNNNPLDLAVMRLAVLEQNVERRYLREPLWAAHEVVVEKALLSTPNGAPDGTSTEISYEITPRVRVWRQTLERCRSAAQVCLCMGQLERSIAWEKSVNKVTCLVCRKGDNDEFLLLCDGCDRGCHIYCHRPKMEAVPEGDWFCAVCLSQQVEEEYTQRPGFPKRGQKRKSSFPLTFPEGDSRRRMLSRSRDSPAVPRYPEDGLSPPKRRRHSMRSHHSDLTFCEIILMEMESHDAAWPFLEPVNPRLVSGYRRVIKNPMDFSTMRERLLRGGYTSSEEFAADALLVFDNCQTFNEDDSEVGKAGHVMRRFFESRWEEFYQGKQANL
# UniProt Q01320: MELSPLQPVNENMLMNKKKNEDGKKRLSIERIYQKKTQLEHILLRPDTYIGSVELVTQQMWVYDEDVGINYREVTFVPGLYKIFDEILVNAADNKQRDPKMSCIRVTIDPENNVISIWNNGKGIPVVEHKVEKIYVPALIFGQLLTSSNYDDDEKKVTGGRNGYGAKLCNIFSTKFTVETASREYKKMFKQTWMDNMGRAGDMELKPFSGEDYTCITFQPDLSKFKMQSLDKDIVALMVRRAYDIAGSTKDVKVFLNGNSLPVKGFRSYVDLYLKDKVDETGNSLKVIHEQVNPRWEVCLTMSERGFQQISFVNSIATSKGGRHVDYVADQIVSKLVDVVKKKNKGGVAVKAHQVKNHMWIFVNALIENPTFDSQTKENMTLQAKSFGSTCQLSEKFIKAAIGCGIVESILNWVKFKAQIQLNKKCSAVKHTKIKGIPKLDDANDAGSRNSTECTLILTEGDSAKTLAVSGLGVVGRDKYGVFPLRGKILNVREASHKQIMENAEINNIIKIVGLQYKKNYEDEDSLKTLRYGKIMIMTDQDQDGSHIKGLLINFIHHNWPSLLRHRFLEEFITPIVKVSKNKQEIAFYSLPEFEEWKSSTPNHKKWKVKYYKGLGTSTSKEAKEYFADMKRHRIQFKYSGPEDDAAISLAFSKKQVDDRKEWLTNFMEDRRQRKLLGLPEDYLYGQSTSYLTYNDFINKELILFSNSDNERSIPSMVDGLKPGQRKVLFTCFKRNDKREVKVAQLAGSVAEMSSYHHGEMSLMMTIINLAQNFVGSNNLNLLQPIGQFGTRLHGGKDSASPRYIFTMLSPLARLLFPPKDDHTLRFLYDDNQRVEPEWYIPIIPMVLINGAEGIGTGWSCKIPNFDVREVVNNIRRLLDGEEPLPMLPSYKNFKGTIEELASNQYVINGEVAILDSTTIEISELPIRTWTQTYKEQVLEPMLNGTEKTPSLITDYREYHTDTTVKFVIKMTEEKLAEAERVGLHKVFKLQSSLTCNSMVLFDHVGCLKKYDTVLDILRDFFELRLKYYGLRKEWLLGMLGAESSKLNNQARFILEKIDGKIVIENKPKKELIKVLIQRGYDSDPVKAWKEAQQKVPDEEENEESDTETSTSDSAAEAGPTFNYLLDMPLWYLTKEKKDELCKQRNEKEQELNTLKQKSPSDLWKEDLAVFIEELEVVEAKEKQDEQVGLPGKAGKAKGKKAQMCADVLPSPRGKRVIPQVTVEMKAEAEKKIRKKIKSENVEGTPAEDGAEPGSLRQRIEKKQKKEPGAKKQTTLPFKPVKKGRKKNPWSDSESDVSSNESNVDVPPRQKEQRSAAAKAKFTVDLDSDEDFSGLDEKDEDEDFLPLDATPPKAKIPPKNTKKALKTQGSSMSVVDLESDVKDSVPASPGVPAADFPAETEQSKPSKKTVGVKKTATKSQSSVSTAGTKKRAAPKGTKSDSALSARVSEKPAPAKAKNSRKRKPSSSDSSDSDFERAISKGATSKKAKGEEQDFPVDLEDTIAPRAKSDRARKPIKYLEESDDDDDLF
# UniProt Q91ZW3: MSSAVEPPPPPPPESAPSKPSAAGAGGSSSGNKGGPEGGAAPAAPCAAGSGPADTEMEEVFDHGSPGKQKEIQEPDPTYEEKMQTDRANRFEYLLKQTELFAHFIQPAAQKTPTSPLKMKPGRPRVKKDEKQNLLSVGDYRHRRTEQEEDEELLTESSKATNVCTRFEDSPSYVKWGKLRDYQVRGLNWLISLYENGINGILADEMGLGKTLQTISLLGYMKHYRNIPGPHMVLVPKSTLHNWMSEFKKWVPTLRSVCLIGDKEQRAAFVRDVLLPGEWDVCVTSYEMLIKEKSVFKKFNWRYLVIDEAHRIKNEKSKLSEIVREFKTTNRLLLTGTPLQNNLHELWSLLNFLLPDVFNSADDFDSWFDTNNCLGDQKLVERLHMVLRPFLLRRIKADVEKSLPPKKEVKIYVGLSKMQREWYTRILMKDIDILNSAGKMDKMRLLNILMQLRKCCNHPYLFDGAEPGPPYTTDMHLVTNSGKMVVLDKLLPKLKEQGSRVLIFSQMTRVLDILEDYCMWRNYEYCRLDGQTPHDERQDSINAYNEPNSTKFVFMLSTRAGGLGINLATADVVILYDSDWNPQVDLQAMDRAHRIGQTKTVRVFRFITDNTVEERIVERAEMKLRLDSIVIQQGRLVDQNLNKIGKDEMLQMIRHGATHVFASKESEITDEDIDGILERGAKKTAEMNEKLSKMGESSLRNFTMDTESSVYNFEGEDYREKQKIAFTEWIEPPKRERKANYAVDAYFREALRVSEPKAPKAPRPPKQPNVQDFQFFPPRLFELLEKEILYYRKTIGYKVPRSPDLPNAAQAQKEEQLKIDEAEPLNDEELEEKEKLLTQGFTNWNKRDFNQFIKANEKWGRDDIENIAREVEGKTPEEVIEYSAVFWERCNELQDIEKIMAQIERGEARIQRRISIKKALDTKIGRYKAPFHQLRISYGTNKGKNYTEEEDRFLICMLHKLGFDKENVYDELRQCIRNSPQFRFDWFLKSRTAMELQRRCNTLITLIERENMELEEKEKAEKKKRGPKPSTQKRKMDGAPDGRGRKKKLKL
# These are yes or no findings as the source states them, for the method shown. Binding seen in cells or lysates may run through a third protein. Some entries that bind do so weakly or less than the wild type.
# B1: SMC1a (protein, UniProt Q9CU62 1-1233)
# chain: MGFLKLIEIENFKSYKGRQIIGPFQRFTAIIGPNGSGKSNLMDAISFVLGEKTSNLRVKTLRDLIHGAPVGKPAANRAFVSMVYSEEGAEDRTFARVIVGGSSEYKINNKVVQLHEYSEELEKLGILIKARNFLVFQGAVESIAMKNPKERTALFEEISRSGELAQEYDKRKKEMVKAEEDTQFNYHRKKNIAAERKEAKQEKEEADRYQRLKDEVVRAQVQLQLFKLYHNEVEIEKLNKELASKNKEIEKDKKRMDKVEDELKEKKKELGKMMREQQQIEKEIKEKDSELNQKRPQYIKAKENTSHKIKKLEAAKKSLQNAQKHYKKRKGDMDELEKEMLSVEKARQEFEERMEEESQSQGRDLTLEENQVKKYHRLKEEASKRAATLAQELEKFNRDQKADQDRLDLEERKKVETEAKIKQKLREIEENQKRIEKLEEYITTSKQSLEEQKKLEGELTEEVEMAKRRIDEINKELNQVMEQLGDARIDRQESSRQQRKAEIMESIKRLYPGSVYGRLIDLCQPTQKKYQIAVTKVLGKNMDAIIVDSEKTGRDCIQYIKEQRGEPETFLPLDYLEVKPTDEKLRELKGAKLVIDVIRYEPPHIKKALQYACGNALVCDNVEDARRIAFGGHQRHKTVALDGTLFQKSGVISGGASDLKAKARRWDEKAVDKLKEKKERLTEELKEQMKAKRKEAELRQVQSQAHGLQMRLKYSQSDLEQTKTRHLALNLQEKSKLESELANFGPRINDIKRIIQSREREMKDLKEKMNQVEDEVFEEFCREIGVRNIREFEEEKVKRQNEIAKKRLEFENQKTRLGIQLDFEKNQLKEDQDKVHMWEQTVKKDENEIEKLKKEEQRHMKIIDETMAQLQDLKNQHLAKKSEVNDKNHEMEEIRKKLGGANKEMTHLQKEVTAIETKLEQKRSDRHNLLQACKMQDIKLPLSKGTMDDISQEEGSSQGEESVSGSQRTSSIYAREALIEIDYGDLCEDLKDAQAEEEIKQEMNTLQQKLNEQQSVLQRIAAPNMKAMEKLESVRDKFQETSDEFEAARKRAKKAKQAFEQIKKERFDRFNACFESVATNIDEIYKALSRNSSAQAFLGPENPEEPYLDGINYNCVAPGKRFRPMDNLSGGEKTVAALALLFAIHSYKPAPFFVLDEIDAALDNTNIGKVANYIKEQSTCNFQAIVISLKEEFYTKAESLIGVYPEQGDCVISKVLTFDLTKYPDANPNPNEQ
# Target: FLAG-HA-tagged TIP5 (F/H-TIP5) (mouse (endogenous in 129/OlaHsd mouse ESCs)) (UniProt Q91YE5)
# Assay: co-IP
row,binding,Molecule
1,binds,DNA topoisomerase 2A (TOP2A) (from UniProt Q01320 1-1528)
2,binds,SNF2H (SMARCA5) (from UniProt Q91ZW3 1-1051)
3,binds,B1
